In this assay the target is FLAG-tagged SpvB (S. Typhimurium strain SL1344) (UniProt P21454). The assay is described as follows: co-IP.

Chains of the proteins cited; added tags and fusions are not shown.
UniProt P21454: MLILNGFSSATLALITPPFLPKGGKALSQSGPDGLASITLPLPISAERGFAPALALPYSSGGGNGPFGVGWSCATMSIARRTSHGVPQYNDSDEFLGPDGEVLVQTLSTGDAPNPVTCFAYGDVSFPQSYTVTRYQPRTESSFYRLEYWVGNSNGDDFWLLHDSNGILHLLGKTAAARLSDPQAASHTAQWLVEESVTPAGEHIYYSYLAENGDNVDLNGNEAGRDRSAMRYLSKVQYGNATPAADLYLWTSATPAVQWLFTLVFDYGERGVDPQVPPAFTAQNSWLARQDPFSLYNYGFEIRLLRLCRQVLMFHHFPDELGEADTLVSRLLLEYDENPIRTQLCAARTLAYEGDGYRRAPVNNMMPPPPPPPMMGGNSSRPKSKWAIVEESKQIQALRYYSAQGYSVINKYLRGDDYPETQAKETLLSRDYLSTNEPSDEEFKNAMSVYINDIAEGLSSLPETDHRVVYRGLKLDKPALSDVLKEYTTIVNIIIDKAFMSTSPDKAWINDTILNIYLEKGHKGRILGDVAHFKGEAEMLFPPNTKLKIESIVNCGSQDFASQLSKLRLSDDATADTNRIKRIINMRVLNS
UniProt Q00610: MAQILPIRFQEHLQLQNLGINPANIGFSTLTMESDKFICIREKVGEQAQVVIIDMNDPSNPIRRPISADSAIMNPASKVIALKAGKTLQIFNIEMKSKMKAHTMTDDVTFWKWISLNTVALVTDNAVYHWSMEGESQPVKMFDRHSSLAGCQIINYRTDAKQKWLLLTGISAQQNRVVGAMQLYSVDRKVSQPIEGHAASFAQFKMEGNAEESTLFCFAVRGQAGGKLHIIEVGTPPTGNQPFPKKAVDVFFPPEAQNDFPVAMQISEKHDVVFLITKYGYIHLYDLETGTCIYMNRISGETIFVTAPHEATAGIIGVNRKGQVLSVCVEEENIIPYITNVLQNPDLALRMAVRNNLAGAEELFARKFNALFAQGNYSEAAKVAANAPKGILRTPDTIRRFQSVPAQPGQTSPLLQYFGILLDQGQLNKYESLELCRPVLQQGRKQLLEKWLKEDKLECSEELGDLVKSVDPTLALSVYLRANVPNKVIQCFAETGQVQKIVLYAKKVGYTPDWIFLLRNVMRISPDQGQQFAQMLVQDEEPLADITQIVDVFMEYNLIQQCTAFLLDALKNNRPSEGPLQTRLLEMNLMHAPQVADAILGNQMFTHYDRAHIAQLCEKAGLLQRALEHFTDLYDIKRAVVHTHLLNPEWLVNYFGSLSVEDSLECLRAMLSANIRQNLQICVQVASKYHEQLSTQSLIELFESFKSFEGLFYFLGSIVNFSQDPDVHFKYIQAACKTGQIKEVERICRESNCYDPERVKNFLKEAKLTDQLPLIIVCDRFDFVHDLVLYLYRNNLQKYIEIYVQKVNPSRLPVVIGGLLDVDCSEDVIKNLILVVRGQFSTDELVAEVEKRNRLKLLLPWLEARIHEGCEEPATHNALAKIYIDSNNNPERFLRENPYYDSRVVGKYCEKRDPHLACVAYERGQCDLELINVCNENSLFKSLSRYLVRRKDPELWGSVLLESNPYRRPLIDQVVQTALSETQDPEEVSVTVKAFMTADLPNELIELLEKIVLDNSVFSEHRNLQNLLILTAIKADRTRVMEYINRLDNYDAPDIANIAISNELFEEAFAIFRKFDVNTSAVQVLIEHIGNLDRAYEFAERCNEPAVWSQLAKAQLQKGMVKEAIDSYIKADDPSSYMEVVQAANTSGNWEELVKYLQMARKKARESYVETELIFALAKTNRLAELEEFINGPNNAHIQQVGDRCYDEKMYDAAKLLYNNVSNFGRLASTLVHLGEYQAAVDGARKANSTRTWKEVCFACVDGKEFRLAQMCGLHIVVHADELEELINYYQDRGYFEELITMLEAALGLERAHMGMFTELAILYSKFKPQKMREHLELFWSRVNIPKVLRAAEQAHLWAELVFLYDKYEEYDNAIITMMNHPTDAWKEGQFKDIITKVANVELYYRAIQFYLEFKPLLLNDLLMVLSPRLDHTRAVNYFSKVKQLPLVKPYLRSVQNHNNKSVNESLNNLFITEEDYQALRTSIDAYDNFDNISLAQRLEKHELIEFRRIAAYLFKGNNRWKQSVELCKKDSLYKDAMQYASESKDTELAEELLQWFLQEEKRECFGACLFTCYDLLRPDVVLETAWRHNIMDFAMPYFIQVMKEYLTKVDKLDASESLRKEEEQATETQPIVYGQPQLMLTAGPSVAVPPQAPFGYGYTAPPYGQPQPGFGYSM

The source of these data is article PMC10696399.

Results are given in words; binding and its absence hold for the method and conditions named. Binding seen in cells or lysates may run through a third protein. Some results given as binding are weak or reduced against the parent protein; the word gives no strength.

For “clathrin heavy chain (endogenous) (from UniProt Q00610 1-1675)”, the binding result is listed as “binds”.
